From PubChem BioAssay AID493014 (National Center for Advancing Translational Sciences (NCATS), 2011)
The campaign covered roughly 340,000 compounds. About 170 (0.05%) were called active. The inconclusive results got no clear call from the source; some entries with a clear call stand among them for comparison. The call rests on the fitted dose curve; in most records, active means well fitted inhibition curve with a large enough effect in the signal ratio, with a control signal flat (not every such curve was filed as active); inconclusive means small, poorly fitted or top-dose-only effect, or effect the other way, or a change in a side signal; inactive means flat fitted curve, though single readings scatter; the % refers to the signal ratio. Where the call is inconclusive, the potency comes from a doubtful curve fit.

Experiment: qHTS Assay to Find Inhibitors of Chronic Active B-Cell Receptor Signaling;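 on activity change, negative = inhibition: plate controls were basal doxycycline-induced cells for no effect and cells given 10 µM MG132 for full effect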
Details: ABC-DLBCL IkBa-CBG/CBR reporter, luminescence ratio (green luciferase fused to IkBa over red control in TMD8 lymphoma cells), 4 h; activity change, negative = inhibition: at 46.1 µM (top of the series)
Summary of the method: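 Cell line TMD8 (human ABC DLBCL), stably expressing tet-inducible CBG68-IkBa fusion and CBR; IMDM/0.5% FBS; cpd up to 46 uM; dox induction, 4 h, 37C/5% CO2; dual luminescence; green/red ratio; MG132 control.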
Potency means the concentration at half of the fitted maximal effect.

Compound	activity change, negative = inhibition	Potency
Nc1ccccc1SC1CC(=O)N(c2ccc(Cl)c(Cl)c2)C1=O (configuration not stated)	inconclusive: 13.4%	–
COc1cccc(NC(=O)C2C3C=CC(O3)C2C(=O)NCc2cccnc2)c1 (configuration not stated)	inconclusive: -0.899%	–
CCc1nc(SCC(=O)NCc2ccco2)c2c3c(sc2n1)CCCC3	inconclusive: 7.52%	–
CCCNS(=O)(=O)c1ccc(OCC(=O)NCCCOC)cc1	inconclusive: 19.2%	–
Cc1cc(NC(=O)C2CCCC2)nc2c1c(=O)oc1ccccc12	–	inconclusive: 0.58 µM [rising, partial curve]
c1ccc(-c2noc(CN3CCN(c4ccccc4)CC3)n2)cc1	inconclusive: -0.86%	–
Cc1nc2ccccc2n1/N=C/c1cccnc1	inconclusive: 0.29%	–
COc1ccc(CNC(=O)Cn2c(=O)oc3cc(S(=O)(=O)N4CCCC4)ccc32)cc1	inactive	–
CC(=O)c1cnc2cc(-c3cccc(Br)c3)nn2c1C	inconclusive: 24%	–
Cc1ccccc1N=C1SC(CC(=O)Nc2ccc3ccccc3c2)C(=O)N1Cc1ccccn1 (configuration not stated)	inconclusive: 4.53%	–
CC1CC(=O)C2=C(C1)Nc1ncnn1C2c1ccccc1 (configuration not stated)	inconclusive: 0.4%	–
O=c1cc(CN2CCN(Cc3ccccc3)CC2)c2ccc(O)cc2o1	inactive	–
CCN(CC)CCn1c(SCC(=O)Nc2cccc(OC)c2)nc2c(sc3ccccc32)c1=O	–	inconclusive: 17.8 µM [falling, single point]
COC(=O)Cc1ccc2c3ccccc3n(C)c2c1	inconclusive: 5.53%	–
COC(=O)C1=C(C)N(Cc2ccccc2)C(=NCC2CC2)N[C@H]1c1ccccc1	inconclusive: -0.42%	–
Cc1cccc([C@H]2[C@@H]3C=CCC[C@@H]3C(=O)N2Cc2ccccc2)c1	inactive	–
C=CCc1ccccc1OCC(O)CN1CCN(CCN2C(=O)c3cccc4cccc(c34)C2=O)CC1 (configuration not stated)	–	inconclusive: 20.6 µM [falling, single point]
COc1ccc(CCNC(=O)c2ccc([N+](=O)[O-])cc2)cc1	inconclusive: 6.15%	–
Cc1ccc(C2C3=C(Nc4[nH]n(-c5ccccc5)c(=O)c42)c2ccccc2C3=O)cc1 (configuration not stated)	–	inconclusive: 11.6 µM [activator, partial curve, poor fit]
COc1ccccc1CNc1ncc(-c2ccc(F)cc2)n1C	inconclusive: -10.1%	–
O=C1OC2(CCCCC2)CC2=C1C1O[C@](c3ccsc3)(Cc3c1ccc1ccccc31)O2	–	inconclusive: 3.98 µM [rising, single point]
COc1ccc(C(Nc2cc(C)ccn2)c2ccc3ccc(C)nc3c2O)cc1 (configuration not stated)	–	inconclusive: 11.2 µM [falling, single point]

One compound at a time (already shown). Order of values: activity change, negative = inhibition	Potency
`COC(=O)C1=C(C)N(Cc2ccccc2)C(=NCC2CC2)N[C@H]1c1ccccc1` is listed as inconclusive: -0.42%	–
`COc1ccc(CNC(=O)Cn2c(=O)oc3cc(S(=O)(=O)N4CCCC4)ccc32)cc1` is listed as inactive	–
